Reference: PubChem BioAssay AID652243 (Drosophila RNAi Screening Center, 2013)
The screen tested about 24,000 reagents; shown is a random part of those that have a named target and a result. In the full data, 246 (1%) are marked active. 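Plates not normalised; calls are printed but the firefly/Renilla ratio behind them is not deposited; fold cut for lowering reported inconsistently.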 Raw values are not corrected between plates. A number with no mark means an inactive call. Reagents against one gene are numbered here. Not given: the amount of reagent.

- Assay: 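Knock-downs that decrease or increase androgen receptor reporter signal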 (primary screen)
- System: Drosophila S2R+ cells
- Knock-down reagent: long dsRNA against Drosophila genes
- Duration: 72 h (48 h, then 24 h hormone)
- Treatment: synthetic androgen R1881 at 10 nM for 24 h
- Measured: 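Per-well raw luminescence of the androgen-driven firefly reporter and of the Renilla control, two replicates each, without normalisation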
- Direction: firefly reporter light: higher = more light from androgen-responsive reporter; Renilla control light: higher = more constitutive control signal (cell number, transfection)
- Rule for the call: 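Hit when the log firefly-to-Renilla ratio dropped or increased by a fixed fold versus the mean of GFP or LacZ controls across duplicate plates; lowering cut given as 1.5 and as 3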
- Calls: active = hit: reporter lowered or raised; inactive = no hit

| gene | dsRNA no. | firefly reporter light, replicate 1 | firefly reporter light, replicate 2 | Renilla control light, replicate 1 | Renilla control light, replicate 2 |
| --- | --- | --- | --- | --- | --- |
| CG10366 | 1 | 1.27e6 | 1.94e6 | 2.09e6 | 2.68e6 |
| CG10366 | 2 | 2.98e5 | 3.10e5 | 5.57e5 | 4.57e5 |
| beat-IIIb (beaten path IIIb) | 1 | 2.20e5 | 2.35e5 | 2.18e6 | 2.67e6 |
| CG31805 | 1 | 1.49e5 | 2.08e5 | 4.82e5 | 6.82e5 |
| CG16704 | 1 | 1.00e5 | 1.60e5 | 8.18e5 | 1.35e6 |
| Cbl (Cbl proto-oncogene) | 1 | 2.38e5 | 2.75e5 | 3.14e6 | 2.33e6 |
| Cbl (Cbl proto-oncogene) | 2 | 90230 | 1.12e5 | 1.56e6 | 1.31e6 |
| Cbl (Cbl proto-oncogene) | 3 | 5.45e5 | 4.06e5 | 1.65e6 | 1.53e6 |
| CG6426 | 1 | 1.07e5 | 96649 | 1.61e6 | 1.61e6 |
| Dgat2 (Diacylglycerol O-acyltransferase 2) | 1 | 1.20e6 | 1.35e6 | 2.09e6 | 2.22e6 |
| CCHa1 (CCHamide-1) | 1 | 1.32e6 | 8.63e5 | 1.09e6 | 1.09e6 |
| Sec61alpha (Sec61 alpha subunit) | 1 | 1.38e6 | 1.66e6 | 2.16e6 | 2.60e6 |
| rswl (roswell) | 1 | 1.56e5 | 1.19e5 | 6.20e5 | 5.39e5 |
| CtsB (Cathepsin B) | 1 | 74773 | 83889 | 5.16e5 | 5.22e5 |
| CG7084 | 1 | 1.04e5 | 89101 | 9.12e5 | 9.06e5 |
| CG9849 | 1 | 2.92e5 | 2.71e5 | 2.18e6 | 2.52e6 |
| CG32845 | 1 | 88398 | 2.00e5 | 3.40e5 | 3.80e5 |
| CG32845 | 2 | 9.27e5 | 7.83e5 | 1.67e6 | 1.69e6 |
| Or56a (Odorant receptor 56a) | 1 | 1.39e5 | 1.57e5 | 1.13e6 | 1.34e6 |
| CG43707 | 1 | 1.11e5 | 1.66e5 | 1.28e6 | 1.07e6 |
| CG43707 | 2 | 3.32e5 | 5.17e5 | 8.16e5 | 1.04e6 |
| CG43707 | 3 | 2.01e5 | 4.23e5 | 1.03e6 | 2.23e6 |
| CG43707 | 4 | 7.01e5 | 6.61e5 | 8.65e5 | 7.02e5 |
| CG9215 | 1 | 3.11e5 | 4.30e5 | 2.48e6 | 3.53e6 |
| Sh (Shaker) | 1 | 43039 | 68344 | 56133 | 73078 |
| Sh (Shaker) | 2 | 4.11e5 | 4.22e5 | 2.68e6 | 2.30e6 |
| Sh (Shaker) | 3 | 4.71e5 | 5.23e5 | 3.17e6 | 3.14e6 |
| Sh (Shaker) | 4 | 2.52e5 | 3.89e5 | 6.99e5 | 6.17e5 |
| Sh (Shaker) | 5 | 4.69e5 | 5.46e5 | 5.03e5 | 5.44e5 |
| CG5902 | 1 | 94706 | 78054 | 5.76e5 | 5.48e5 |
| MED11 (Mediator complex subunit 11) | 1 | 5.78e5 | 8.27e5 | 1.39e6 | 1.92e6 |
| MED11 (Mediator complex subunit 11) | 2 | 3.05e5 | 3.30e5 | 7.67e5 | 7.02e5 |
| CG1958 | 1 | 2.62e5 | 4.30e5 | 2.74e6 | 2.94e6 |
| CG1958 | 2 | 7.21e5 | 7.96e5 | 7.77e5 | 8.04e5 |
| Tsp42Ee (Tetraspanin 42Ee) | 1 | 4.27e5 | 6.25e5 | 2.10e6 | 1.60e6 |
| Tsp42Ee (Tetraspanin 42Ee) | 2 | 4.74e5 | 4.36e5 | 1.43e6 | 1.48e6 |
| CG13955 | 1 | 2.85e5 | 2.97e5 | 1.91e6 | 1.82e6 |
| CG34327 | 1 | 6.40e5 | 5.73e5 | 3.00e6 | 2.86e6 |
| CG34327 | 2 | 1.06e6 | 9.54e5 | 2.42e6 | 1.75e6 |
| CG34327 | 3 | 5.76e5 | 5.08e5 | 1.51e6 | 1.28e6 |

Entries above whose gene name starts with M or m:
| gene | dsRNA no. | firefly reporter light, replicate 1 | firefly reporter light, replicate 2 | Renilla control light, replicate 1 | Renilla control light, replicate 2 |
| --- | --- | --- | --- | --- | --- |
| MED11 (Mediator complex subunit 11) | 1 | 5.78e5 | 8.27e5 | 1.39e6 | 1.92e6 |
| MED11 (Mediator complex subunit 11) | 2 | 3.05e5 | 3.30e5 | 7.67e5 | 7.02e5 |
